# These are yes or no findings as the source states them, for the method shown. Binding seen in cells or lysates may run through a third protein. Here binding means that the protein was enriched with, or labelled near, the bait; the list need not be complete. For some assays here: No binding means not detected with the bait. Tags and fused reporters may be left off the sequences shown.
# Chains of the proteins cited; added tags and fusions are not shown.
# UniProt Q92769: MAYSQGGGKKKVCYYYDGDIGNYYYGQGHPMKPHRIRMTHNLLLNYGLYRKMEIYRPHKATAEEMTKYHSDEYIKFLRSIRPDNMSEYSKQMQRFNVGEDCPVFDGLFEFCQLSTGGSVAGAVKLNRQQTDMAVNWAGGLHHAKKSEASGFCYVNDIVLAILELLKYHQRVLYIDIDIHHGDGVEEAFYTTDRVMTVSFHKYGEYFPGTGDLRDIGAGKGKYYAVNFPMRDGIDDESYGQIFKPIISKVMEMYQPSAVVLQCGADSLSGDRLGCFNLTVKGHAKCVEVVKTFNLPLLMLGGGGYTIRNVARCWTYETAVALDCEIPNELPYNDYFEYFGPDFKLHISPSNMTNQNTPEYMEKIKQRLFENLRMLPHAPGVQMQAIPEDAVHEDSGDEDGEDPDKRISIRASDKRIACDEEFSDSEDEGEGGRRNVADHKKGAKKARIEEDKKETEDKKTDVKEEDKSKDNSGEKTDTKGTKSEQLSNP
# UniProt Q9UBB5: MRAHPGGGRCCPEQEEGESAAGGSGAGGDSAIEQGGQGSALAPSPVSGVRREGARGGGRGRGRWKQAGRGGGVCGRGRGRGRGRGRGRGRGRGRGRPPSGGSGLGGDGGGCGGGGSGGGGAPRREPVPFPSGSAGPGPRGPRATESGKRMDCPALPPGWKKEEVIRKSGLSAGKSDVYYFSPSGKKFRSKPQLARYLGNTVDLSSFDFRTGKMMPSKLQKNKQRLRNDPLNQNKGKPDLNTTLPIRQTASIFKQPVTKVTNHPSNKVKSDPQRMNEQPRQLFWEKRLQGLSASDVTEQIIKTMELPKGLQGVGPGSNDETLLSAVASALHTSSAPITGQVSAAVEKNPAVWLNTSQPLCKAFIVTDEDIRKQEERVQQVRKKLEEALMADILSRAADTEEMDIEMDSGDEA
# UniProt Q8TAQ2: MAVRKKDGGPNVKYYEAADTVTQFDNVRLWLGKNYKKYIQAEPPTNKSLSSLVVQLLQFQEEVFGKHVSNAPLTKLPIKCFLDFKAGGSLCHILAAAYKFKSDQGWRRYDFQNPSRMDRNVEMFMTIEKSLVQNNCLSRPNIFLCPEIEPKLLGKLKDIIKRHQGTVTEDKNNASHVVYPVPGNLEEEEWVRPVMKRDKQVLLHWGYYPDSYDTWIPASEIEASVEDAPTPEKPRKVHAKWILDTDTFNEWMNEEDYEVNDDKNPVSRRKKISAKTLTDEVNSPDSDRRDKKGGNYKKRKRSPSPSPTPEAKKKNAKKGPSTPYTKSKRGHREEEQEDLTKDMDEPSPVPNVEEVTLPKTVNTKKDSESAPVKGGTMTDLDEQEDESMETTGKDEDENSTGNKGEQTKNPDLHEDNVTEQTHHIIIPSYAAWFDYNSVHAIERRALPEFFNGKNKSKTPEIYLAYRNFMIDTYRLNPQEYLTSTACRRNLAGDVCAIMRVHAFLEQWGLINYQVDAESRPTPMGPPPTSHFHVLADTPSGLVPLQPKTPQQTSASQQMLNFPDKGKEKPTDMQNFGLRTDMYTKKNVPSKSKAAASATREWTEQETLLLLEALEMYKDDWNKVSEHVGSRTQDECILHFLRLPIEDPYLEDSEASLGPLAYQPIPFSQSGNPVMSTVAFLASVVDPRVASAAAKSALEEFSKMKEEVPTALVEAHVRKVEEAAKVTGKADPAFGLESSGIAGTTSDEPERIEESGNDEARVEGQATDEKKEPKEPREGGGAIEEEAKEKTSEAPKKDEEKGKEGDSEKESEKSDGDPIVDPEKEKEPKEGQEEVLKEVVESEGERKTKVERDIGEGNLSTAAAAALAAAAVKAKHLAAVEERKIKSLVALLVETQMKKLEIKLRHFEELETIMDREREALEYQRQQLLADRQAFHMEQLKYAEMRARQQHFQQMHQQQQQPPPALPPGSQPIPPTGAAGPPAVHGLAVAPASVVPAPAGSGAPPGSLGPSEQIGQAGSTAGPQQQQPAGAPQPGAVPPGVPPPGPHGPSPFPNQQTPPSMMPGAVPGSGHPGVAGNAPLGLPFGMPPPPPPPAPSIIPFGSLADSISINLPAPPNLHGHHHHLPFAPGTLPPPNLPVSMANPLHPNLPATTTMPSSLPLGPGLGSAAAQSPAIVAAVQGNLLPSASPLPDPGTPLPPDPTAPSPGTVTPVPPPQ
# UniProt P48643: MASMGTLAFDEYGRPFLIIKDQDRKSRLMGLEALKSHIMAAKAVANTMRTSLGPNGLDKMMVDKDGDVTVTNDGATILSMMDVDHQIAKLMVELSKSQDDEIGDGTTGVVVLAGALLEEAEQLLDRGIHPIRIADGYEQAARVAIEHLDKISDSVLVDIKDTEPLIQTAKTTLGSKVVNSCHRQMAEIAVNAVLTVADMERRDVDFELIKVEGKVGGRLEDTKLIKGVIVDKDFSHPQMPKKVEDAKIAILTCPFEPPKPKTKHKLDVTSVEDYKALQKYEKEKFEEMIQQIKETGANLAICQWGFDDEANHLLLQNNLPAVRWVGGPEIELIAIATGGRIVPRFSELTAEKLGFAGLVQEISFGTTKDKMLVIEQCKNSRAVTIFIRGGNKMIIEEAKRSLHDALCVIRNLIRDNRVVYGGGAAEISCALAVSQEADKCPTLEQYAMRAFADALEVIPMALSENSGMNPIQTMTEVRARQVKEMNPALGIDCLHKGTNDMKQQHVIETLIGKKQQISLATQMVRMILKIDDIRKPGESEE
# UniProt P50990: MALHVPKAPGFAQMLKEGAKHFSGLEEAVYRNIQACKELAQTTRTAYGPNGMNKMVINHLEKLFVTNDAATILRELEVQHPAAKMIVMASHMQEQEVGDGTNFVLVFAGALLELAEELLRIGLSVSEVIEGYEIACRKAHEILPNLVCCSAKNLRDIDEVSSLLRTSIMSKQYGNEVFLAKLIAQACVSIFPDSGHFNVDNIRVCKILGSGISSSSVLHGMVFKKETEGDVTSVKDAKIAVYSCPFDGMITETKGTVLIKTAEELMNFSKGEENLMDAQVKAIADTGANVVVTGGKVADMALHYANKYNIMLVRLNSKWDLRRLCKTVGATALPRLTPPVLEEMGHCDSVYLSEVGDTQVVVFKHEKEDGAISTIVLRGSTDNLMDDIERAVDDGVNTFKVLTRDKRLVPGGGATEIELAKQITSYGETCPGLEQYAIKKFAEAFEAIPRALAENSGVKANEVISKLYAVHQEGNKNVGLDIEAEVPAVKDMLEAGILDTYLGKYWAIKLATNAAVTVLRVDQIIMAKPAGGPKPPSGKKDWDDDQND
# UniProt Q14839: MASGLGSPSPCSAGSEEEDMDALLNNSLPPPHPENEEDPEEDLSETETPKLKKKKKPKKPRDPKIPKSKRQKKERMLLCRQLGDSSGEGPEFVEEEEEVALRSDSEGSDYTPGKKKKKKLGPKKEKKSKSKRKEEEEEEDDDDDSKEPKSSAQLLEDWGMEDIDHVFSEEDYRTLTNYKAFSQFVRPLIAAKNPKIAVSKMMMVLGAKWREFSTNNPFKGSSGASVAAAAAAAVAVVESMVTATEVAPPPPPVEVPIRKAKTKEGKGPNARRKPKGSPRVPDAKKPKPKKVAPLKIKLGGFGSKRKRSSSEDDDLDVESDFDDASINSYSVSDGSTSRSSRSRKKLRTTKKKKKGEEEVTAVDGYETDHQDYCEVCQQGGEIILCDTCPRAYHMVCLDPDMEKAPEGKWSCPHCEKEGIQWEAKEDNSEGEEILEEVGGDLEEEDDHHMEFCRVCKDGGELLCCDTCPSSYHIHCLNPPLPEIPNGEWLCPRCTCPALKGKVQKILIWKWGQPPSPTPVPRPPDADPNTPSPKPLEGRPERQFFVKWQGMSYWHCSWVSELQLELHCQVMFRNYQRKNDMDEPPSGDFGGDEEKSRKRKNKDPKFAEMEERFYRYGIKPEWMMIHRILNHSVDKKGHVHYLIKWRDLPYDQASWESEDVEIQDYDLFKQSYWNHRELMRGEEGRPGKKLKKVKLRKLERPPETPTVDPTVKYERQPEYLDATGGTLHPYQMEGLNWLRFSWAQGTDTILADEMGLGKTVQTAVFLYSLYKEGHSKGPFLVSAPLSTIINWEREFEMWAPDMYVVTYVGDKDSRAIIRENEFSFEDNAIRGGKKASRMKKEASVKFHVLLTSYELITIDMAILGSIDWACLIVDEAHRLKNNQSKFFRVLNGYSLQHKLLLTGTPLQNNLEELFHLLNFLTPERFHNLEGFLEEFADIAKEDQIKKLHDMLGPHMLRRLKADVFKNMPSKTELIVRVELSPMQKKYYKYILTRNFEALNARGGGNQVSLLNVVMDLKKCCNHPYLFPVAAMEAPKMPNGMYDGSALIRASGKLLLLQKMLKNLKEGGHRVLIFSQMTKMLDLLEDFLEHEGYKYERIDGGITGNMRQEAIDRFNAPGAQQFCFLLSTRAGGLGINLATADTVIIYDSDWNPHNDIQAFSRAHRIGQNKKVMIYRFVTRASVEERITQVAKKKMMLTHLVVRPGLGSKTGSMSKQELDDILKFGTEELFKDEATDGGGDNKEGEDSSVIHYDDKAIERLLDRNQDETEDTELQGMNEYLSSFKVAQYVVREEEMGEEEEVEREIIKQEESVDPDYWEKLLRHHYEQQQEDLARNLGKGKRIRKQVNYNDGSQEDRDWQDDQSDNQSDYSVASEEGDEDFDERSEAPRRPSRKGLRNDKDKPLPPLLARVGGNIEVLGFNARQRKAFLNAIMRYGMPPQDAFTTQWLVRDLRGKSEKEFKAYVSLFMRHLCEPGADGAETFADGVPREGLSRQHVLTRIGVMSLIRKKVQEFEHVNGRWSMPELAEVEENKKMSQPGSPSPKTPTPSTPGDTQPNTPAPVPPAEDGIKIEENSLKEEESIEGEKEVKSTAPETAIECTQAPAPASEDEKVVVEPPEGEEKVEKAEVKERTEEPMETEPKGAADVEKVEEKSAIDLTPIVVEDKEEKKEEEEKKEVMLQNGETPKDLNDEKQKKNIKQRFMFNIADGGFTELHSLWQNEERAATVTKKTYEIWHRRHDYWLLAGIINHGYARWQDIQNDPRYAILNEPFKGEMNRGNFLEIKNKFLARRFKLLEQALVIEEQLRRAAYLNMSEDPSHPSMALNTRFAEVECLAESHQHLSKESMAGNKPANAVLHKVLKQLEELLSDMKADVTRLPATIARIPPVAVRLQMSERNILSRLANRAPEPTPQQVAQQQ
# UniProt P17096: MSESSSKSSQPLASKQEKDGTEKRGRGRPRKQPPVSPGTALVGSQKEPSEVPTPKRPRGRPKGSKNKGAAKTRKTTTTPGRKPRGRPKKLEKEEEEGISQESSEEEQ
# UniProt P09429: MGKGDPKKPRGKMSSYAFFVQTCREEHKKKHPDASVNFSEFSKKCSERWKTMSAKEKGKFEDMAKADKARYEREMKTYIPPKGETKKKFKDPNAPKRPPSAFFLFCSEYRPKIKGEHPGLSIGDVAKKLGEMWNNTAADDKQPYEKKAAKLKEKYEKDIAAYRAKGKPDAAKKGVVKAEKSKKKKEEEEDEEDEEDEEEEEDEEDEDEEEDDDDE
# UniProt P38159: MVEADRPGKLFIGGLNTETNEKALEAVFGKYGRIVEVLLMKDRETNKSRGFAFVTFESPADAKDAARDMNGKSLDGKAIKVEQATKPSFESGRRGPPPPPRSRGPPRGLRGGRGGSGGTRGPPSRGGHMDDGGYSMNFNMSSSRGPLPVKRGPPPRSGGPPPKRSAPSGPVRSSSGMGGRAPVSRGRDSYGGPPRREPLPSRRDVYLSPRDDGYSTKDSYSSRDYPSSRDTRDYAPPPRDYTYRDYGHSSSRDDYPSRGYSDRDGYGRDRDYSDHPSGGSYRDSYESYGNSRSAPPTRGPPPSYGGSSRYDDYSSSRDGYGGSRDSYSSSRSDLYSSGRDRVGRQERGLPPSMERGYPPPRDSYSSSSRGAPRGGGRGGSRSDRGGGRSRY
# UniProt P31943: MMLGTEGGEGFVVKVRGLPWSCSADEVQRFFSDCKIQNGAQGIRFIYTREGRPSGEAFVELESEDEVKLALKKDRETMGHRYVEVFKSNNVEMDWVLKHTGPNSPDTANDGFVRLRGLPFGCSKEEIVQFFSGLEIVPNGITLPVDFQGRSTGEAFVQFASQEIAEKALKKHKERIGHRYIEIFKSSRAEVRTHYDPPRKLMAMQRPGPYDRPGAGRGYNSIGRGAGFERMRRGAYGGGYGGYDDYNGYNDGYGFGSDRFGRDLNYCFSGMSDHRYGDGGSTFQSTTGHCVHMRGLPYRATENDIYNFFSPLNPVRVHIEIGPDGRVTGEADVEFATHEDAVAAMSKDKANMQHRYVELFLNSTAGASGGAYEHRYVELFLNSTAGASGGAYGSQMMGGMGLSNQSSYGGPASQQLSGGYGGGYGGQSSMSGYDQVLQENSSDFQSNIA
# T1: His-FLAG-tagged ATF2 (human (cDNA from K562 cells)) (UniProt P15336)
# T1 sequence: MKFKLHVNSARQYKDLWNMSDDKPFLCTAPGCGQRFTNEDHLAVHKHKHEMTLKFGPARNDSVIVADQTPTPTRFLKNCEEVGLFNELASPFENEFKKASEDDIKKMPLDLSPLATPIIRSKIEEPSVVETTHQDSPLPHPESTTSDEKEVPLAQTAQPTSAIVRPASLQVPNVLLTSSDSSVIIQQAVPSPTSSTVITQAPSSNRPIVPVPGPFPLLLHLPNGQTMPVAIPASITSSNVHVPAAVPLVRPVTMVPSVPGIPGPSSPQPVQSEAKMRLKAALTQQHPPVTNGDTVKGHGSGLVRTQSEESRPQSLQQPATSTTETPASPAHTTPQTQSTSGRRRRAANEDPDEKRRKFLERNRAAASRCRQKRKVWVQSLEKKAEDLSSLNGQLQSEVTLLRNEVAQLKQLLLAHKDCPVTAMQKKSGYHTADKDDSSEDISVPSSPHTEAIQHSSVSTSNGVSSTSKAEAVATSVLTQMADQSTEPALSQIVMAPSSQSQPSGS
# T2: His-FLAG-tagged ATF2 (human (cDNA from K562 cells)), P15336
# T2 chain: T1 sequence
# B1: CCT2 (protein, UniProt P78371 1-535)
# chain: MASLSLAPVNIFKAGADEERAETARLTSFIGAIAIGDLVKSTLGPKGMDKILLSSGRDASLMVTNDGATILKNIGVDNPAAKVLVDMSRVQDDEVGDGTTSVTVLAAELLREAESLIAKKIHPQTIIAGWREATKAAREALLSSAVDHGSDEVKFRQDLMNIAGTTLSSKLLTHHKDHFTKLAVEAVLRLKGSGNLEAIHIIKKLGGSLADSYLDEGFLLDKKIGVNQPKRIENAKILIANTGMDTDKIKIFGSRVRVDSTAKVAEIEHAEKEKMKEKVERILKHGINCFINRQLIYNYPEQLFGAAGVMAIEHADFAGVERLALVTGGEIASTFDHPELVKLGSCKLIEEVMIGEDKLIHFSGVALGEACTIVLRGATQQILDEAERSLHDALCVLAQTVKDSRTVYGGGCSEMLMAHAVTQLANRTPGKEAVAMESYAKALRMLPTIIADNAGYDSADLVAQLRAAHSEGNTTAGLDMREGTIGDMAILGITESFQVKRQVLLSAAEAAEVILRVDNIIKAAPRKRVPDHHPC
# B2: hnRNP M (protein, UniProt P52272 1-730)
# chain: MAAGVEAAAEVAATEIKMEEESGAPGVPSGNGAPGPKGEGERPAQNEKRKEKNIKRGGNRFEPYANPTKRYRAFITNIPFDVKWQSLKDLVKEKVGEVTYVELLMDAEGKSRGCAVVEFKMEESMKKAAEVLNKHSLSGRPLKVKEDPDGEHARRAMQKVMATTGGMGMGPGGPGMITIPPSILNNPNIPNEIIHALQAGRLGSTVFVANLDYKVGWKKLKEVFSMAGVVVRADILEDKDGKSRGIGTVTFEQSIEAVQAISMFNGQLLFDRPMHVKMDERALPKGDFFPPERPQQLPHGLGGIGMGLGPGGQPIDANHLNKGIGMGNIGPAGMGMEGIGFGINKMGGMEGPFGGGMENMGRFGSGMNMGRINEILSNALKRGEIIAKQGGGGGGGSVPGIERMGPGIDRLGGAGMERMGAGLGHGMDRVGSEIERMGLVMDRMGSVERMGSGIERMGPLGLDHMASSIERMGQTMERIGSGVERMGAGMGFGLERMAAPIDRVGQTIERMGSGVERMGPAIERMGLSMERMVPAGMGAGLERMGPVMDRMATGLERMGANNLERMGLERMGANSLERMGLERMGANSLERMGPAMGPALGAGIERMGLAMGGGGGASFDRAIEMERGNFGGSFAGSFGGAGGHAPGVARKACQIFVRNLPFDFTWKMLKDKFNECGHVLYADIKMENGKSKGCGVVKFESPEVAERACRMMNGMKLSGREIDVRIDRNA
# B3: HMGB3 (protein, UniProt O15347 1-200)
# chain: MAKGDPKKPKGKMSAYAFFVQTCREEHKKKNPEVPVNFAEFSKKCSERWKTMSGKEKSKFDEMAKADKVRYDREMKDYGPAKGGKKKKDPNAPKRPPSGFFLFCSEFRPKIKSTNPGISIGDVAKKLGEMWNNLNDSEKQPYITKAAKLKEKYEKDVADYKSKGKFDGAKGPAKVARKKVEEEDEEEEEEEEEEEEEEDE
# B4: hnRNP L (protein, UniProt P14866 1-589)
# chain: MSRRLLPRAEKRRRRLEQRQQPDEQRRRSGAMVKMAAAGGGGGGGRYYGGGSEGGRAPKRLKTDNAGDQHGGGGGGGGGAGAAGGGGGGENYDDPHKTPASPVVHIRGLIDGVVEADLVEALQEFGPISYVVVMPKKRQALVEFEDVLGACNAVNYAADNQIYIAGHPAFVNYSTSQKISRPGDSDDSRSVNSVLLFTILNPIYSITTDVLYTICNPCGPVQRIVIFRKNGVQAMVEFDSVQSAQRAKASLNGADIYSGCCTLKIEYAKPTRLNVFKNDQDTWDYTNPNLSGQGDPGSNPNKRQRQPPLLGDHPAEYGGPHGGYHSHYHDEGYGPPPPHYEGRRMGPPVGGHRRGPSRYGPQYGHPPPPPPPPEYGPHADSPVLMVYGLDQSKMNCDRVFNVFCLYGNVEKVKFMKSKPGAAMVEMADGYAVDRAITHLNNNFMFGQKLNVCVSKQPAIMPGQSYGLEDGSCSYKDFSESRNNRFSTPEQAAKNRIQHPSNVLHFFNAPLEVTEENFFEICDELGVKRPSSVKVFSGKSERSSSGLLEWESKSDALETLGFLNHYQMKNPNGPYPYTLKLCFSTAQHAS
# B5: HMGB2 (protein, UniProt P26583 1-209)
# chain: MGKGDPNKPRGKMSSYAFFVQTCREEHKKKHPDSSVNFAEFSKKCSERWKTMSAKEKSKFEDMAKSDKARYDREMKNYVPPKGDKKGKKKDPNAPKRPPSAFFLFCSEHRPKIKSEHPGLSIGDTAKKLGEMWSEQSAKDKQPYEQKAAKLKEKYEKDIAAYRAKGKSEAGKKGPGRPTGSKKKNEPEDEEEEEEEEDEDEEEEDEDEE
# B6: cJun, P05412 1-331 (protein)
# chain: MTAKMETTFYDDALNASFLPSESGPYGYSNPKILKQSMTLNLADPVGSLKPHLRAKNSDLLTSPDVGLLKLASPELERLIIQSSNGHITTTPTPTQFLCPKNVTDEQEGFAEGFVRALAELHSQNTLPSVTSAAQPVNGAGMVAPAVASVAGGSGSGGFSASLHSEPPVYANLSNFNPGALSSGGGAPSYGAAGLAFPAQPQQQQQPPHHLPQQMPVQHPRLQALKEEPQTVPEMPGETPPLSPIDMESQERIKAERKRMRNRIAASKCRKRKLERIARLEEKVKTLKAQNSELASTANMLREQVAQLKQKVMNHVNSGCQLMLTQQLQTF
# Molecular target: T1, His-FLAG-tagged ATF2 (human (cDNA from K562 cells))
# Assay: affinity purification with mass spectrometry; as a1, cells treated with 2 mM NaB for 48 hours; proteins lost against untreated cells
# Conditions: not given
row,Molecule,binding
1,HDAC1 (from UniProt Q13547 1-482),no binding (only cells treated with 2 mM NaB)
2,HDAC2 (from UniProt Q92769 1-488),no binding (only cells treated with 2 mM NaB)
3,MBD2 (from UniProt Q9UBB5 1-411),no binding (only cells treated with 2 mM NaB)

# Molecular target: T1, His-FLAG-tagged ATF2 (human (cDNA from K562 cells))
# Assay: affinity purification with mass spectrometry; nuclear extract of K562 cells stably expressing His-FLAG-ATF2, untreated or treated with 2 mM NaB; heparin sepharose (0.6 M NaCl eluate), HisTALON (imidazole), anti-FLAG agarose (FLAG peptide), pre-clearing on mutant G-CRE agarose, G-CRE oligonucleotide column (0.4 M NaCl eluate); bands of a 10% SDS-PAGE gel by MS/MS
# Conditions: not given
row,binding,Molecule
1,binds,BAF57 (from UniProt Q969G3 1-411)
2,binds,BAF155 (from UniProt Q92922 1-1105)
3,binds,BAF170 (from UniProt Q8TAQ2 1-1214)
4,binds,BRM (from UniProt P51531 1-1590)
5,binds,Brg1 (from UniProt P51532 1-1647)
6,binds,CCT5 (from UniProt P48643 1-541)
7,binds,CCT7 (from UniProt Q99832 1-543)
8,binds,CCT8 (from UniProt P50990 1-548)
9,binds,CHD-4 (from UniProt Q14839 1-1912)
10,binds,HDAC1 (from UniProt Q13547 1-482)
11,binds,HDAC2 (from UniProt Q92769 1-488)
12,binds,HMGA1 (from UniProt P17096 1-107)
13,binds,HMGB1 (from UniProt P09429 1-215)
14,binds,Lamin-A (from UniProt P02545 1-646)
15,binds,Lamin-B (human (endogenous in K562))
16,binds,Lamin-C (from UniProt P02545-2 1-572)
17,binds,MBD2 (from UniProt Q9UBB5 1-411)
18,binds,SNF2H (from UniProt O60264 1-1052)
19,binds,hnRNP A/B (human (endogenous in K562))
20,binds,hnRNP G (from UniProt P38159 1-391)
21,binds,hnRNP H1 (from UniProt P31943 1-449)
22,binds,hnRNP K (from UniProt P61978 1-463)
23,binds,hnRNP R2 (human (endogenous in K562))

# Molecular target: T1, His-FLAG-tagged ATF2 (human (cDNA from K562 cells))
# Assay: as above
# Conditions: not given
# Remark: another data set of the same source
row,binding,Molecule
1,binds,B1
2,binds,B2
3,binds,B3
4,binds,B4
5,binds,B5

# Molecular target: T2, His-FLAG-tagged ATF2 (human (cDNA from …))
# Assay: as above
# Conditions: remark: other sources report otherwise
row,binding,Molecule
1,binds,B6

# Reference: article PMC3819381
